# Measured values reported in PubChem BioAssay AID2685 (National Center for Advancing Translational Sciences (NCATS), 2010).
# The campaign covered roughly 320,000 compounds. About 2,100 (0.66%) were called active. Inconclusive means that the source gave no clear call. Such entries were picked first, then a sample of the others. Calls come from the whole dose curve; as a rule, active = well fitted inhibition curve with a large enough effect in the signal ratio, with a control signal flat (not every such curve was filed as active); inconclusive = small, poorly fitted or top-dose-only effect, or effect the other way, or a change in a side signal; inactive = flat fitted curve, though single readings scatter; the % refers to the signal ratio. Potencies of inconclusive entries are doubtful fits and often do not repeat.
# Assay: qHTS Assay for Lipid Storage Modulators in Drosophila S3 Cells
# Conditions: BODIPY lipid droplet fluorescence, 18-24 h, cells fed with added oleic acid; lipid storage change, negative = inhibition: at 46.1 µM (top of the series) unless noted
# How it was run: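 Drosophila S3 cells loaded with oleic acid (400 uM, as added) and compounds at several concentrations; lipid droplets imaged by 488-nm laser-scanning cytometry, 500–530 nm intensity and object ratio to cell channel. Percent activity normalized to 20 uM Triacsin C.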
# % is set by controls: 0 for no effect and ±100 for the full control effect; potency is the fitted concentration of half-maximal effect.
Structure (SMILES),"lipid storage change, negative = inhibition",Potency
CNC(=O)c1ccc(NC(=O)CCNC(=O)Nc2ccccc2)cc1,inconclusive,–
COc1cc(CNc2ncn[nH]2)ccc1OCC(=O)NC(C)(C)C,inactive: 15.6%,–
CCC(C)NC(=O)CSc1nnc(-c2ccc(OC)c(OC)c2)c(-c2ccc(OC)c(OC)c2)n1 (stereo not given),inconclusive: 9.68%,–
CCOC(=O)C1CCCN(C(=O)CCCn2nnnc2CN2CCOCC2)C1 (stereo not given),–,"inconclusive: 731 nM [activator, partial curve]"
CC(=O)Oc1ccccc1C(=O)Oc1ccccc1C(=O)O,inconclusive: -6.53%,–
CCn1cc(C(=O)N(C)Cc2ccc(OC(F)F)cc2)c(=O)c2ccc(C)nc21,–,active: 18400 nM
OC(COc1ccc(Br)cc1)CN1CCC(Cc2ccccc2)CC1 (stereo not given),inconclusive: 74.1%,–
O=C(O)C1C2CCC(O2)C1C(=O)Nc1ccc(O)cc1 (stereo not given),inconclusive: -79.7%,–
CN1CC=C2C(C#N)=C(N)C(C#N)(C#N)[C@H](c3ccoc3)[C@H]2C1,inconclusive: -3.35%,–
O=S(=O)(c1ccc(N2CCCC2)nc1)N1CCOCC1,–,"inconclusive: 231 nM [falling, full curve, poor fit]"
CCN1/C(=C\c2ccc3cc(C)ccc3[n+]2CC)Sc2cc(C)c(C)cc21,inconclusive: -100%,–
O=C1Nc2ccccc2C1(c1ccccc1)c1ccccc1,–,"inconclusive: 651 nM [cytotoxic, full curve, poor fit]"
COC(=O)CNC(=O)Cc1c(C)n(C(=O)c2ccc(Cl)cc2)c2ccc(OC)cc12,–,"inconclusive: 164 nM [falling, full curve, poor fit]"
COc1cccc(CN(C)CC(=O)Nc2sc3c(c2C#N)CCC3)c1OC,inconclusive: 0.928%,–
CN(C)c1ccc(C2N(C(=O)N3CCOCC3)CCN2S(=O)(=O)c2ccccc2)cc1 (stereo not given),inconclusive: -1.19%,–
CCOC(=O)c1ccc(Nc2ncnc3nc[nH]c23)cc1,inconclusive: 3.71%,–
COC(=O)c1cn(NC(=O)c2ccccc2[N+](=O)[O-])c(=O)c2ccccc12,inconclusive: 29%,–
Cc1cccc(-c2nc(CS(=O)CC(=O)N3CCN(C)CC3)c(C)o2)c1 (stereo not given),–,"inconclusive: 130 nM [falling, full curve, poor fit]"
COc1ccccc1N1CCN(C(=O)c2ccc3nc[nH]c3c2)CC1,inconclusive: -23.4%,–
CCC(C)C(=O)Nc1ccc(OC)cc1OC (stereo not given),–,active: 23100 nM

# Grouped by structure: those above containing a COOH group (2)
Structure (SMILES),"lipid storage change, negative = inhibition",Potency
CC(=O)Oc1ccccc1C(=O)Oc1ccccc1C(=O)O,inconclusive: -6.53%,–
O=C(O)C1C2CCC(O2)C1C(=O)Nc1ccc(O)cc1 (stereo not given),inconclusive: -79.7%,–

# Further entries

Structure (SMILES),"lipid storage change, negative = inhibition",Potency
COc1ccc(CNC(=O)C/C(C)=N/NC(=O)C23CC4CC(CC(C4)C2)C3)cc1,inactive: 3.76%,–
COc1cccc(C(=O)N2CCCc3ccccc32)c1,inconclusive: -12.3%,–
O=c1oc2ccccc2c(Nc2ccc(Cl)cc2)c1[N+](=O)[O-],inconclusive: 7.85%,–
COc1ccc(C)cc1N(CC(=O)N1CCOCC1)S(C)(=O)=O,–,"inconclusive: 411 nM [activator, full curve, poor fit]"
CCCCN(C)C(=O)c1cc2c(s1)-c1ccccc1S(=O)(=O)C2,inconclusive: 18.7%,–
O=C(COc1cccc(C(F)(F)F)c1)N1CCN(c2ccc(O)cc2)CC1,inconclusive: -31.5%,–
Cc1cc(C)n(-c2nc3ccccc3n3cnnc23)n1,inconclusive: 15.1%,–
OCC(O)C(O)C(O)C(O)C1NCCS1 (stereo not given),inactive: 0.23%,–
CC(=O)c1ccc(S(=O)(=O)N(C)CCCC(=O)N2CCN(c3ncccn3)CC2)cc1,inconclusive: 9.05%,–
N#Cc1nc(-c2ccccc2)oc1NCc1ccco1,inconclusive: 39.6%,–
O=C(Nc1cc(F)cc(F)c1)c1sc(Cl)nc1-c1ccccc1,inconclusive: -7.25%,–
O=C(C(=O)N1CCOCC1)c1cn(CC(=O)N2CCc3ccccc3C2)c2ccccc12,inconclusive: 17.3%,–
CC1(C)Cc2cccc(OCC(=O)Nc3ccc(OCC(N)=O)cc3)c2O1,inconclusive: 10.2%,–
Cc1ccc(OCC(=O)NCCCNC(=O)c2ccco2)cc1C,–,"inconclusive: 116 nM [falling, full curve, poor fit]"
CC1=C(C#N)C(=O)N(C2CCS(=O)(=O)C2)C(=O)/C1=C\c1ccco1 (stereo not given),inconclusive: -14.9%,–
O=C(O)C1(c2ccccc2)CCN(S(=O)(=O)c2ccc(Cl)cc2)CC1,–,"inconclusive: 8200 nM [falling, partial curve, poor fit]"
Cc1ccc(-c2csc(N(CC3CCCO3)C(=O)c3ccco3)n2)cc1 (stereo not given),inconclusive: -5.4%,–
O=C(Nc1cccc(S(=O)(=O)N2CCOCC2)c1)c1c2c(nc3ccccc13)CCC2,inconclusive: 14.5%,–
CC(=O)Nc1sc2c(c1C(c1ccccn1)N1CCN(C)CC1)CCCC2 (stereo not given),inconclusive: -5.98%,–
COc1ccc(S(=O)(=O)NCCCn2ccnc2)cc1C(C)(C)C,inconclusive: 22.9%,–
